Results from PubChem BioAssay AID328 (DTP/NCI, 2004).
The list does not hold the whole screen: it gathers tests that were run many times, whatever their T/C, doses with no T/C, and many T/C values between a quarter and a half above the control. Further doses and runs are listed elsewhere. T/C is the treated group as % of the vehicle group. Some doses have a count of surviving animals in place of a T/C: the source files T/C as zero there, which appears to mark a toxic dose or a test without result, not a measured value. Some survivor counts are full or nearly so, which does not show that the dose was tolerated: the source hardly ever lists a survival T/C far under the control, and the zero likely stands for such cases as well. Counts of survivors are from the toxicity check (mostly the fifth day) where no day follows; animals may have died later. Schedules are NCI's codes, taken here to give the interval after Q, in days (D) or hours (H), and the number of doses after X. Some entries hold several experiments; their values stand side by side, smallest first. For survival time, this PubChem deposit counts one and a half times the control or more as active, and values a quarter to a half above the control carry no call in these data; other NCI protocols may use other cut-offs. Marks such as (2×) count equal records among those shown. Some T/C values carry the count of animals alive at the toxicity check (mostly the fifth day); without a count, all were alive then.

Tested on: BDF1 mice, P388 leukemia ip, median survival T/C
Assay: NCI In Vivo Anticancer Drug Screen. Data for tumor model P388 Leukemia (intraperitoneal) in B6D2F1 (BDF1) mice
Conditions: T/C endpoint: median survival time, higher T/C = longer survival
Procedure, shortened: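 Compound-treated tumour-bearing mice were compared with vehicle-treated controls. Survival was recorded, and the value is the treated-group measurement divided by the control-group measurement (T/C).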

[1] = dose: 0.5 mg/kg/injection, schedule: Q01DX009 (ip), vehicle: saline
[2] = dose: 400.0 mg/kg/injection, schedule: Q04DX003 (ip), vehicle: saline with Tween-80
[3] = dose: 12.5 mg/kg/injection, schedule: Q04DX003 (ip), vehicle: water
[4] = dose: 25.0 mg/kg/injection, schedule: Q04DX003 (ip), vehicle: water
[5] = dose: 100.0 mg/kg/injection, schedule: Q01DX009 (ip), vehicle: saline with Tween-80
[6] = dose: 200.0 mg/kg/injection, schedule: Q01DX009 (ip), vehicle: Klucel (hydroxypropylcellulose) (HPC)
[7] = dose: 100.0 mg/kg/injection, schedule: Q01DX009 (ip), vehicle: Klucel (hydroxypropylcellulose) (HPC)

Structure (SMILES): CC(C)(C)c1ccc2c(cc[n+]3ccccc23)c1
- T/C (dose: 6.25 mg/kg/injection, schedule: Q01DX005 (ip), vehicle: saline with Tween-80): 131 % of control
- survivor count (dose: 12.5 mg/kg/injection, schedule: Q01DX005 (ip), vehicle: saline with Tween-80): 0 of 5

Structure (SMILES): CCCCCn1c(C)cc(/C=C\c2ccc3cc(C)ccc3[n+]2C)c1C
- T/C [1]: 125 % of control
- T/C (dose: 0.66 mg/kg/injection, schedule: Q01DX009 (ip), vehicle: saline): 136 % of control
- T/C (dose: 1.0 mg/kg/injection, schedule: Q01DX009 (ip), vehicle: saline): 131 % of control
- T/C (dose: 1.0 mg/kg/injection, schedule: Q04DX003 (ip), vehicle: saline): 127 % of control
- T/C (dose: 2.0 mg/kg/injection, schedule: Q04DX003 (ip), vehicle: saline): 127 % of control
- survivor count (dose: 4.0 mg/kg/injection, schedule: Q04DX003 (ip), vehicle: saline): 3 of 6
- survivor count (dose: 100.0 mg/kg/injection, schedule: Q04DX003 (ip), vehicle: saline with Tween-80): 0 of 6
- survivor count (dose: 200.0 mg/kg/injection, schedule: Q04DX003 (ip), vehicle: saline with Tween-80): 0 of 6
- survivor count [2]: 0 of 6

Structure (SMILES): CC(C)=CCC(OC(=O)C=C(C)C)C1=CC(=O)c2c(O)ccc(O)c2C1=O (stereo unspecified)
- survivor count (dose: 5.0 mg/kg/injection, schedule: Q01DX009 (ip), vehicle: carboxymethylcellulose (CMC)): 2 of 6
- survivor count (dose: 10.0 mg/kg/injection, schedule: Q01DX009 (ip), vehicle: carboxymethylcellulose (CMC)): 0 of 6
- survivor count (dose: 12.5 mg/kg/injection, schedule: Q01DX009 (ip), vehicle: water): 7 of 10
- T/C [3]: 127 % of control
- survivor count (dose: 25.0 mg/kg/injection, schedule: Q01DX009 (ip), vehicle: water): 7 of 10
- T/C [4]: 136 % of control (2×)
- survivor count (dose: 50.0 mg/kg/injection, schedule: Q04DX003 (ip), vehicle: water): 3 of 10
- survivor count (dose: 100.0 mg/kg/injection, schedule: Q04DX003 (ip), vehicle: water): 1 of 10

Structure (SMILES): CCC(C(=O)O)c1ccccc1 (stereo unspecified)
- survivor count [5]: 6 of 6

Structure (SMILES): CCOc1c(Cl)cc(Cl)cc1C(c1ccc(Cl)cc1S(=O)(=O)O)c1cc(Cl)cc(Cl)c1OCC
- survivor count [5]: 4 of 6

Structure (SMILES): CCCCCCCCCCCCCCCCNCCO
- survivor count [6]: 6 of 6

Structure (SMILES): CCC(C)C(=O)OC1C(=O)OC2CC3C(C)=CC(=O)C(O)C3(C)C3C4(O)OCC23C1C(C)C4O (stereo unspecified)
- T/C (dose: 0.12 mg/kg/injection, schedule: Q01DX009 (ip), vehicle: saline with Tween-80): 141 % of control
- T/C (dose: 0.25 mg/kg/injection, schedule: Q01DX009 (ip), vehicle: saline with Tween-80): 138 % of control
- T/C (dose: 0.5 mg/kg/injection, schedule: Q01DX009 (ip), vehicle: saline with Tween-80): 148 % of control
- T/C [1]: 133 % of control
- T/C (dose: 1.0 mg/kg/injection, schedule: Q01DX009 (ip), vehicle: saline with Tween-80): 138 % of control
- T/C (dose: 2.0 mg/kg/injection, schedule: Q01DX009 (ip), vehicle: saline with Tween-80): 148 % of control
- T/C (dose: 4.0 mg/kg/injection, schedule: Q01DX009 (ip), vehicle: saline with Tween-80): 127 % of control [5 of 6 alive]
- T/C (dose: 4.0 mg/kg/injection, schedule: Q01DX009 (ip), vehicle: saline): 126 % of control
- T/C (dose: 8.0 mg/kg/injection, schedule: Q01DX009 (ip), vehicle: saline): 134 % of control

Structure (SMILES): CC(C)(C)COC(=O)CCN1CC1
- survivor count (dose: 40.0 mg/kg/injection, schedule: Q01DX009 (ip), vehicle: Klucel (hydroxypropylcellulose) (HPC)): 4 of 6
- survivor count (dose: 80.0 mg/kg/injection, schedule: Q01DX009 (ip), vehicle: Klucel (hydroxypropylcellulose) (HPC)): 3 of 6

Structure (SMILES): Cc1nc(C)c(Br)s1
- survivor count (dose: 200.0 mg/kg/injection, schedule: Q01DX009 (ip), vehicle: saline with Tween-80): 3 of 6

Structure (SMILES): CCCCCCCCCCCCCCCCOCCCCCCCCCCCCCCCC
- survivor count (dose: 400.0 mg/kg/injection, schedule: Q01DX009 (ip), vehicle: other): 6 of 6
- survivor count (dose: 400.0 mg/kg/injection, schedule: Q04DX003 (ip), vehicle: other): 6 of 6

Structure (SMILES): C(CC1CO1)CC1OC1CC1CO1 (stereo unspecified)
- survivor count (dose: 225.0 mg/kg/injection, schedule: Q04DX003 (ip), vehicle: saline): 0 of 6

Structure (SMILES): COc1cc(NS(=O)(=O)c2ccccc2)ccc1C
- survivor count [6]: 6 of 6
- survivor count (dose: 400.0 mg/kg/injection, schedule: Q01DX009 (ip), vehicle: Klucel (hydroxypropylcellulose) (HPC)): 6 of 6

Structure (SMILES): COc1cccc2c1C(=O)c1c(O)c3c(c(O)c1C2=O)C[C@@](O)(/C(C)=N/NC(=O)c1ccc(O)cc1)C[C@@H]3OC1CC(N)C(O)C(C)O1 (stereo partly specified)
- T/C (dose: 0.25 mg/kg/injection, schedule: Q01DX009 (ip), vehicle: water): 125 % of control

Structure (SMILES): O=C(CC(=O)C(F)(F)F)c1ccc2c(c1)Cc1ccccc1-2
- survivor count [2]: 3 of 6

Structure (SMILES): O=C(O)COc1ccc(Cl)cc1Cl
- survivor count [5]: 4 of 6

Structure (SMILES): CCOC(=O)C(C(=O)OCC)C(=O)c1cc(-c2ccc(Cl)c(Cl)c2)nc2c(Cl)cc(Cl)cc12
- survivor count [7]: 6 of 6

Structure (SMILES): NC(=O)N(CCCl)N=O
- T/C (dose: 2.0 mg/kg/injection, schedule: Q01DX010 (ip), vehicle: saline): 131 % of control
- survivor count (dose: 5.0 mg/kg/injection, schedule: Q01DX010 (ip), vehicle: saline): 6 of 6
- survivor count (dose: 10.0 mg/kg/injection, schedule: Q01DX010 (ip), vehicle: saline): 2 of 6
- survivor count (dose: 20.0 mg/kg/injection, schedule: Q01DX010 (ip), vehicle: saline): 0 of 6 and 2 of 6

Structure (SMILES): C[n+]1c(/C=C/c2ccc(O)c3ncccc23)[se]c2ccccc21
- survivor count (dose: 12.0 mg/kg/injection, schedule: Q01DX010 (ip), vehicle: acetone): 6 of 6
- T/C (dose: 12.5 mg/kg/injection, schedule: Q01DX010 (ip), vehicle: saline): 127 % of control
- T/C (dose: 50.0 mg/kg/injection, schedule: Q01DX010 (ip), vehicle: saline): 140 % of control
- T/C (dose: 100.0 mg/kg/injection, schedule: Q01DX010 (ip), vehicle: saline): 127 % of control

Structure (SMILES): CS(=O)(=O)OCCF
- survivor count (dose: 6.0 mg/kg/injection, schedule: Q01DX009 (ip), vehicle: saline with Tween-80): 4 of 6
- T/C (dose: 6.0 mg/kg/injection, schedule: Q04DX003 (ip), vehicle: saline): 136 % of control [4 of 6 alive]

Structure (SMILES): CC[N+](CC)(CC)CCCCCC[N+](CC)(CC)CC
- T/C (dose: 4.0 mg/kg/injection, schedule: Q04DX003 (ip), vehicle: water): 127 % of control
- T/C (dose: 8.0 mg/kg/injection, schedule: Q04DX003 (ip), vehicle: water): 130 % of control
- survivor count (dose: 12.0 mg/kg/injection, schedule: Q04DX003 (ip), vehicle: water): 2 of 6
- survivor count [3]: 5 of 6
- survivor count [4]: 2 of 6

Structure (SMILES): CCCCCCCCCCCCCCCCCC[n+]1cccc(C2CCCN2C)c1 (stereo unspecified) (tested in a mixture with another compound)
- T/C (dose: 12.5 mg/kg/injection, schedule: Q01DX009 (ip), vehicle: Klucel (hydroxypropylcellulose) (HPC)): 144 % of control
- survivor count (dose: 50.0 mg/kg/injection, schedule: Q01DX009 (ip), vehicle: Klucel (hydroxypropylcellulose) (HPC)): 5 of 6 and 6 of 6
- survivor count [7]: 0 of 6
- survivor count [6]: 0 of 6

Structure (SMILES): COC1OC(COC(C)=O)C(OC(C)=O)C(OC(C)=O)[CH]1[Hg][O]C(C)=O (stereo unspecified)
- survivor count (dose: 12.5 mg/kg/injection, schedule: Q01DX009 (ip), vehicle: saline): 3 of 6

Structure (SMILES): O=S1(=O)C=C(c2ccccc2)C(c2ccccc2)=C1
- T/C (dose: 33.0 mg/kg/injection, schedule: Q04DX003 (ip), vehicle: saline sonified): 136 % of control
- T/C (dose: 50.0 mg/kg/injection, schedule: Q04DX003 (ip), vehicle: saline): 127 % of control

Structure (SMILES): COC(=O)C12Oc3ccc(-c4ccc5c(c4O)C(O)=C4C(=O)CC(C)C(O)C4(C(=O)OC)O5)c(O)c3C(O)=C1C(=O)CC(C)C2O (stereo unspecified)
- T/C (dose: 1.56 mg/kg/injection, schedule: Q01DX009 (ip), vehicle: saline): 133 % of control
